Results are given in words; binding and its absence hold for the method and conditions named. A result given as binding can be weak or reduced; the word gives no strength.
Target: T1, human complement C1 esterase inhibitor (human) (UniProt P05155)
T1 sequence: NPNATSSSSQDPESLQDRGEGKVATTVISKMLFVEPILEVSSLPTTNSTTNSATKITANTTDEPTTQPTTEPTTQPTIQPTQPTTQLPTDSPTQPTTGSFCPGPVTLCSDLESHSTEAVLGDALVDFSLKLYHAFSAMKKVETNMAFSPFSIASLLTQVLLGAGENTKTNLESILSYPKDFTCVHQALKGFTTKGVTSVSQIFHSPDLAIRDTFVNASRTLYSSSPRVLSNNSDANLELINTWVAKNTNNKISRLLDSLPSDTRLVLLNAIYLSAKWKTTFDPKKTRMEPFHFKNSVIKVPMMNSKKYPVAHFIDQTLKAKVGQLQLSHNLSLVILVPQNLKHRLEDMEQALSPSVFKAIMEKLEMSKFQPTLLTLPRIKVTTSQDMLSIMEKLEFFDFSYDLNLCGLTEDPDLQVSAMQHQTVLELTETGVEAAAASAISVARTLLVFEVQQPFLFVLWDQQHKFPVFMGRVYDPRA
Assay: SPR; Biacore T200; biotinylated goat anti-human C1inh polyclonal antibody on a streptavidin chip captured C1inh (1 µM injected, about 30 RU); C1s 3.9-1000 nM in HBS-EP+ with 200 nM CSA, heparin or OSCS injected at 30 µL/min, 120 s association, 180 s dissociation; double referencing (GAG alone subtracted); both purified

## Activated C1s (enzyme)
  binding: binds

Source: paper PMC3471833
